Experimental findings from publication PMC8339435 are described below.

Sequences of proteins named here, by UniProt entry; tags and fusion partners are left off.
UniProt Q14974: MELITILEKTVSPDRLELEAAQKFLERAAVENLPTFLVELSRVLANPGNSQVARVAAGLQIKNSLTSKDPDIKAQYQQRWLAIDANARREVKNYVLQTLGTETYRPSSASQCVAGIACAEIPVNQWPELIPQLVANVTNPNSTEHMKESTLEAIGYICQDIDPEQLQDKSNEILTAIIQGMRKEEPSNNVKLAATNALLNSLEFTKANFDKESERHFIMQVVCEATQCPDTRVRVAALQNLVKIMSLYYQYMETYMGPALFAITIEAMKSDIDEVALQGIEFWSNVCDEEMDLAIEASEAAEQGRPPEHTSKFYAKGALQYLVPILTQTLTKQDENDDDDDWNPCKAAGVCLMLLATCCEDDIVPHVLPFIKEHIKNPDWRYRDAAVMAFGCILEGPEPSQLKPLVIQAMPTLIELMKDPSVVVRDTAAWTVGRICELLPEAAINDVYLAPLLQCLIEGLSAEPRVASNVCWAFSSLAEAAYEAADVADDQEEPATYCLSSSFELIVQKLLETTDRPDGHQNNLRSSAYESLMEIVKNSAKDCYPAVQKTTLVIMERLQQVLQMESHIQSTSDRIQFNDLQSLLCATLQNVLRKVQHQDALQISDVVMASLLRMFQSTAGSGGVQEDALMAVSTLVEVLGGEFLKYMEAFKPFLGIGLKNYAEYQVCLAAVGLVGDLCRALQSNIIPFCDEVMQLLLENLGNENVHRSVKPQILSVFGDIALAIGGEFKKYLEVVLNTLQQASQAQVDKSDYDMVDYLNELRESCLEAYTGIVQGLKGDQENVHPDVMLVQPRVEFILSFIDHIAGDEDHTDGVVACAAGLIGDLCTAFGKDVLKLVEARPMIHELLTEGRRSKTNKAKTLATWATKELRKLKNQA

In the test the target is 3 × Flag-importin β1 (human) (UniProt Q14974). Nature of the test: co-IP.

Results are given in words; binding and its absence hold for the method and conditions named. Binding seen in cells or lysates may run through a third protein. Some results given as binding are weak or reduced against the parent protein; the word gives no strength. Sequences can lack the tags named with a protein.

B1: EYFP-BFLF2 (protein, UniProt P0CK47 1-318)
chain: MAPVTPDAVNARQQRPADPALRRLMHPHHRNYTASKASAHSVKSVSRCGKSRSELGRMERVGSVARSICSRHTRHGVDRSHFSLRDFFRGISANFELGKDFLREMNTPIHVSEAVFLPLSLCTLSPGRCLRLSPFGHSLTLGSHCEICINRSQVHVPQEFSSTQLSFFNNVHKIIPNKTFYVSLLSSSPSAVKAGLSQPSLLYAYLVTGHFCGTICPIFSTNGKGRLIMHLLLQGTSLHIPETCLKLLCENIGPTYELAVDLVGDAFCIKVSPRDTVYEKAVNVDEDAIYEAIKDLECGDELRLQIINYTQLILENKQ
In the case of B1, the binding result is listed as “binds”.
